For one molecule, binding results are on record in paper doi:10.1101/2021.08.09.455653.

The experiment addresses His6-sumo-kindlin. The experiment can be described thus: pull-down.

Results are given in words; binding and its absence hold for the method and conditions named. A result given as binding can be weak or reduced; the word gives no strength.

B1: phosphorylated p130Cas (protein, UniProt P56945 1-870)
chain: MNHLNVLAKALYDNVAESPDELSFRKGDIMTVLEQDTQGLDGWWLCSLHGRQGIVPGNRLKILVGMYDKKPAGPGPGPPATPAQPQPGLHAPAPPASQYTPMLPNTYQPQPDSVYLVPTPSKAQQGLYQVPGPSPQFQSPPAKQTSTFSKQTPHHPFPSPATDLYQVPPGPGGPAQDIYQVPPSAGMGHDIYQVPPSMDTRSWEGTKPPAKVVVPTRVGQGYVYEAAQPEQDEYDIPRHLLAPGPQDIYDVPPVRGLLPSQYGQEVYDTPPMAVKGPNGRDPLLEVYDVPPSVEKGLPPSNHHAVYDVPPSVSKDVPDGPLLREETYDVPPAFAKAKPFDPARTPLVLAAPPPDSPPAEDVYDVPPPAPDLYDVPPGLRRPGPGTLYDVPRERVLPPEVADGGVVDSGVYAVPPPAEREAPAEGKRLSASSTGSTRSSQSASSLEVAGPGREPLELEVAVEALARLQQGVSATVAHLLDLAGSAGATGSWRSPSEPQEPLVQDLQAAVAAVQSAVHELLEFARSAVGNAAHTSDRALHAKLSRQLQKMEDVHQTLVAHGQALDAGRGGSGATLEDLDRLVACSRAVPEDAKQLASFLHGNASLLFRRTKATAPGPEGGGTLHPNPTDKTSSIQSRPLPSPPKFTSQDSPDGQYENSEGGWMEDYDYVHLQGKEEFEKTQKELLEKGSITRQGKSQLELQQLKQFERLEQEVSRPIDHDLANWTPAQPLAPGRTGGLGPSDRQLLLFYLEQCEANLTTLTNAVDAFFTAVATNQPPKIFVAHSKFVILSAHKLVFIGDTLSRQAKAADVRSQVTHYSNLLCDLLRGIVATTKAAALQYPSPSAAQDMVERVKELGHSTQQFRRVLGQLAAA
modifications: phosphorylated on tyrosine to an average of ~19 sites/molecule (with Lck)
As for B1, the binding result is reported as “binds”.
